Out of some 340,000 compounds screened, about 170 (0.05%) were called active. Inconclusive means that the source gave no clear call. Such entries were picked first, then a sample of the others. The call rests on the fitted dose curve; in most records, active means well fitted inhibition curve with a large enough effect in the signal ratio, with a control signal flat (not every such curve was filed as active); inconclusive means small, poorly fitted or top-dose-only effect, or effect the other way, or a change in a side signal; inactive means flat fitted curve, though single readings scatter; the % refers to the signal ratio. A potency beside an inconclusive call is a rough fit, not a confirmed value.
Test: qHTS Assay to Find Inhibitors of Chronic Active B-Cell Receptor Signaling;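 on activity change, negative = inhibition: plate controls were basal doxycycline-induced cells for no effect and cells given 10 µM MG132 for full effect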
Details: ABC-DLBCL IkBa-CBG/CBR reporter, luminescence ratio (green luciferase fused to IkBa over red control in TMD8 lymphoma cells), 4 h; activity change, negative = inhibition: at 46.1 µM (top of the series)
In short: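 Compounds up to 46 uM were incubated four hours with TMD8 cells whose green CBG68 luciferase is fused to IkappaBalpha; red CBR luminescence normalised the signal, and concentration-effect curves were fitted to fusion, red and ratio data.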
Potency means the concentration at half of the fitted maximal effect.

SMILES	activity change, negative = inhibition	Potency
CN(C)CCNC(=O)c1coc(=O)c(Br)c1	inconclusive: 0.731%	–
COc1ccccc1NC(=O)CSc1nc(=O)n(CCN(C)C)c2c1CCCC2	–	inconclusive: 16.4 µM [falling, partial curve]
CC1CCN(C(=O)Cn2cc3c(n2)CCCC3)CC1	inconclusive: 13.3%	–
Cc1cccc(CC(=O)Nc2cccnc2)c1	inactive	–
Cc1cc(NC(=O)COC(=O)c2cc([N+](=O)[O-])ccc2N2CCOCC2)ccc1Br	inconclusive: -9.36%	–
CCn1c(/C=C2\C(=O)N(C)c3ccccc32)nc2ccccc2c1=O	inactive	–
c1ccc(C(c2nnnn2C2CCCC2)N2CCCCCC2)nc1 (stereo not given)	inactive	–
O=[N+]([O-])c1ccc(CN2CCN(c3ccc4ccccc4n3)CC2)cc1	inconclusive: 7.71%	–
CC(=O)Nc1sc(/C(C#N)=C/c2ccc(Cl)c(Cl)c2)nc1-c1ccc(C)cc1	inactive	–
CNC(=O)/C=C/c1cccc(C(F)(F)F)c1	inconclusive: -0.456%	–
Cc1ccc(S(C)=O)cc1-n1c(=O)n(Cc2ccccc2)c(=O)c2[nH]cnc21 (stereo not given)	inconclusive: -1.91%	–
Cc1cccc(NC(=O)Cn2cnc3c(oc4ccccc43)c2=O)c1	inconclusive: 0.534%	–
COc1ccc(CCNC(=O)C(=O)NCC(c2ccco2)S(=O)(=O)c2ccc(F)cc2)cc1 (stereo not given)	inconclusive: 0.527%	–
CCCCn1c(C)nc2cc(S(=O)(=O)N3CCOCC3)ccc21	inconclusive: 1.16%	–
Cc1ccc2cc(CN(CC3CCCO3)S(=O)(=O)c3ccccc3)c3nnnn3c2c1 (stereo not given)	inactive	–
CCN(CC)c1ccc(NC(=O)c2cccc(C)c2OC)c(C)c1	inactive	–
Cc1c(C(=O)Nc2cccc(Cl)c2)oc2ccc(S(=O)(=O)N(C)C3CCCCC3)cc12	inactive	–
C=CCCC(=O)Nc1ccc(COC(=O)N2CCOCC2)cc1	inconclusive: -14.6%	–
CC(=O)N1/C(=C/c2ccc(N(C)C)cc2)C(=O)c2ccccc21	inconclusive: 16.3%	–
C=CCOc1cccc(C(=O)N2CCC(CCC(=O)NC3CC3)CC2)c1	inconclusive: 4%	–
COc1ccc(CNC(=O)CN(C(=O)CCC(=O)Nc2ccccn2)c2ccccc2OC)cc1	inconclusive: 0.533%	–
O=C1CCCC2=C1C(c1ccc(O)c(O)c1)c1c(ccc3ncccc13)N2 (stereo not given)	–	inconclusive: 35.5 µM [falling, single point]
COc1ccc(NC(=O)c2nc[nH]c2C(=O)NCCCCCNC(=O)OC(C)(C)C)cc1	–	inconclusive: 32.6 µM [falling, partial curve, poor fit]
O=C(Cn1cc(C(F)(F)F)cc(Cl)c1=O)NC1CCS(=O)(=O)C1 (stereo not given)	inactive	–
COC(=O)CCCCCNc1ccc(C(=O)OC)cc1N	–	inconclusive: 8.2 µM [falling, partial curve]
CC(=O)C1=C(O)C(=O)N(c2nccs2)C1c1ccc(Br)cc1 (stereo not given)	inconclusive: 2.17%	–
CCc1ccc(-c2nc(CS(=O)CC(=O)NCCc3ccc(Cl)cc3)c(C)o2)cc1 (stereo not given)	–	inconclusive: 0.891 µM [falling, full curve, poor fit]

Structures from the list above containing sulfur:
SMILES	activity change, negative = inhibition	Potency
COc1ccccc1NC(=O)CSc1nc(=O)n(CCN(C)C)c2c1CCCC2	–	inconclusive: 16.4 µM [falling, partial curve]
CC(=O)Nc1sc(/C(C#N)=C/c2ccc(Cl)c(Cl)c2)nc1-c1ccc(C)cc1	inactive	–
Cc1ccc(S(C)=O)cc1-n1c(=O)n(Cc2ccccc2)c(=O)c2[nH]cnc21 (stereo not given)	inconclusive: -1.91%	–
COc1ccc(CCNC(=O)C(=O)NCC(c2ccco2)S(=O)(=O)c2ccc(F)cc2)cc1 (stereo not given)	inconclusive: 0.527%	–
CCCCn1c(C)nc2cc(S(=O)(=O)N3CCOCC3)ccc21	inconclusive: 1.16%	–
Cc1ccc2cc(CN(CC3CCCO3)S(=O)(=O)c3ccccc3)c3nnnn3c2c1 (stereo not given)	inactive	–
Cc1c(C(=O)Nc2cccc(Cl)c2)oc2ccc(S(=O)(=O)N(C)C3CCCCC3)cc12	inactive	–
O=C(Cn1cc(C(F)(F)F)cc(Cl)c1=O)NC1CCS(=O)(=O)C1 (stereo not given)	inactive	–
CC(=O)C1=C(O)C(=O)N(c2nccs2)C1c1ccc(Br)cc1 (stereo not given)	inconclusive: 2.17%	–
CCc1ccc(-c2nc(CS(=O)CC(=O)NCCc3ccc(Cl)cc3)c(C)o2)cc1 (stereo not given)	–	inconclusive: 0.891 µM [falling, full curve, poor fit]

Two compounds picked at random from the list so far, as already listed:
SMILES	activity change, negative = inhibition	Potency
O=C(Cn1cc(C(F)(F)F)cc(Cl)c1=O)NC1CCS(=O)(=O)C1 (stereo not given)	inactive	–
Cc1cccc(NC(=O)Cn2cnc3c(oc4ccccc43)c2=O)c1	inconclusive: 0.534%	–

The list continues:

SMILES	activity change, negative = inhibition	Potency
COc1ccc(C(=O)Nc2ccccc2-c2nnn(CC(=O)Nc3ccc4c(c3)OCCO4)n2)cc1	inactive	–
CC(=O)Nc1cc(-c2ccc(Cl)cc2)nn1-c1ccccc1	–	inconclusive: 0.146 µM [rising, full curve, poor fit]
COc1ccc(N2C3=C(C(=O)CC(C)(C)C3)C(c3ccccc3OC)C3=C2CC(C)(C)CC3=O)cc1	inactive	–
O=C(Nc1ccccc1)OCc1cc(-c2ccccc2Cl)on1	inconclusive: 9.96%	–
O=C(Nc1ccc(N2CCCCCC2)cc1)c1ccc[nH]1	–	inconclusive: 23.1 µM [falling, single point]
Cc1ccccc1-n1nnnc1SCc1cc(=O)n2ccsc2n1	inactive	–
C/C(=N/Nc1ccc([N+](=O)[O-])cc1)c1ccc(C)cc1C	inconclusive: 7.44%	–
CNC(=O)c1c(Br)cnn1-c1ccc(C)cc1	inconclusive: 0.0288%	–
COc1cc(-c2ccc(Nc3ccccc3C(=O)O)c(OC)c2)ccc1Nc1ccccc1C(=O)O	inconclusive: 4.26%	–
O=C(/C=C\c1ccccc1[N+](=O)[O-])Nc1ccccc1	–	inconclusive: 22.4 µM [falling, partial curve]
COc1ccccc1-n1c(C)nc(=O)c(-c2ccccc2)c1C	inconclusive: 8.54%	–
O=Nc1c(-c2ccccc2)[nH]n(-c2ccccc2)c1=O	inconclusive: -1.86%	–
CCCC(=O)Nc1ccc(-c2nc3cc(C)ccc3o2)cc1	inconclusive: 8.32%	–
Cc1ccc2c(c1)sc(C)[n+]2CCCS(=O)(=O)[O-]	inconclusive: 15.3%	–
CC(C)c1nn2c(=O)cc(COc3cccc(NC(=O)c4ccco4)c3)nc2s1	–	inconclusive: 3.16 µM [falling, partial curve]
O=C(Nc1cccc(-c2cccc(F)c2)c1)C1CCN(C2CCC2)CC1	–	inconclusive: 22.4 µM [falling, single point]
CCOC(=O)N/N=C/c1cn(Cc2ccccc2Cl)c2ccccc12	inconclusive: -19.4%	–
CCC(C)NC(=O)c1cnn2c(C)c3c(nc12)CCCC3 (stereo not given)	inconclusive: -12.2%	–
CNc1ccc(Br)cc(C(=O)/C=C/c2ccc(Cl)cc2Cl)c1=O	inconclusive: -14.2%	–
CC(C)C(=O)Nc1nnc(COc2ccc(Cl)cc2)s1	inconclusive: 4.77%	–
COC(=O)C1=C(C)N(Cc2ccccc2)C(=NCCc2cccnc2)N[C@H]1c1ccccc1	inconclusive: 2.09%	–
CCOC(=O)c1cc(-c2ccccc2)n(CC(=O)Nc2cc(OC)cc(OC)c2)c1C	inconclusive: -0.655%	–
CCC(=O)N(CCC(c1ccco1)C(C)C)Cc1ccccc1 (stereo not given)	inconclusive: 13.3%	–
CC1=C(C(=O)OCCOc2ccccc2)C(c2coc3ccccc3c2=O)C2=C(CCCC2=O)N1 (stereo not given)	inactive	–
CCC(Oc1ccc(C)cc1)C(=O)Nc1ccc(S(=O)(=O)Nc2cc(C)on2)cc1 (stereo not given)	inactive	–
CSc1ccccc1Nc1ncnc(N)n1	inconclusive: -11.4%	–
CCN(CC)S(=O)(=O)c1ccc(-c2nnc(SCC(=O)Nc3ccc(OC)cc3)o2)cc1	inconclusive: 0.558%	–

SMILES	activity change, negative = inhibition	Potency
Cc1ccc(S(=O)(=O)NCc2ccc(C(=O)NC3CCC(O)CC3)cc2)cc1C (stereo not given)	inconclusive: 7.89%	–
COc1ccccc1-n1c(C)cc(/C=C2\C(=N)N3N=C(CC(=O)N4CCOCC4)SC3=NC2=O)c1C	inactive	–
COc1ccc(-c2nn(Cc3ccccc3)cc2C(=O)N2CCN(c3ccccn3)CC2)cc1OC	inconclusive: 1.37%	–
CC1CCN(c2ccc(/C=N\Nc3nncn3N)cc2[N+](=O)[O-])CC1	inconclusive: -6.62%	–
CCCc1cc(NCCCn2ccnc2)n2nc(C)c(-c3ccccc3)c2n1	inconclusive: -14.9%	–
COc1cccc(NC(=S)Nc2cccc3ccccc23)c1	inactive	–
O=C(COc1ccc(NC(=O)c2cccs2)cc1)c1ccc(F)cc1	inconclusive: 1.83%	–
COC(=O)C/C=N/N=C1/NC(=O)/C(=C/C(=O)O)S1	–	inconclusive: 3.98 µM [rising, full curve, poor fit]
COc1ccc(CNC(=O)c2ccc(CS(=O)(=O)c3ccccc3OC)o2)cc1	inactive	–
CC(=O)n1nc(-c2ccncc2)nc1SCC(=O)Nc1cccc(Cl)c1	–	inconclusive: 15.8 µM [falling, partial curve]
NC(=O)c1ccc(C(F)(F)F)n(Cc2ccc(F)c(F)c2)c1=O	–	inconclusive: 10 µM [falling, partial curve]
NNC(=O)c1ccc(COc2ccc([N+](=O)[O-])cc2)o1	–	inconclusive: 5.01 µM [falling, partial curve, poor fit]
Cc1ccc(-c2n[nH]c(=O)c3ccccc23)cc1S(=O)(=O)Nc1ccccc1	–	inconclusive: 1.3 µM [falling, partial curve, poor fit]
Cc1ccc(S(=O)(=O)NC(=O)Nc2ccc(C)cc2C)cc1	inconclusive: 13.1%	–
COc1ccc(OC)c(NC(=O)c2cccc(NC(=O)c3ccccc3)c2)c1	inconclusive: -6.49%	–
O=C(Nc1c(-c2ccccc2)nc2c(Br)cc(Br)cn12)c1ccco1	inconclusive: 4.46%	–
Nc1c(-c2ccccc2)cnc2c(-c3ccccc3)cnn12	inconclusive: 3.5%	–
CCn1c(=O)c(C(=O)NNC(=O)c2ccccc2Cl)c(O)c2ccccc21	–	inconclusive: 15.8 µM [falling, partial curve]
COc1ccc(CNC(=O)C2CCC(CNC(=O)[C@@H]3Cc4ccccc4CN3)CC2)cc1 (stereo not given in full)	–	inconclusive: 15.8 µM [falling, partial curve]
COc1ccc(C(=O)NC(=S)Nc2ccc3c4c(cccc24)CC3)cc1OC	inconclusive: 0.0596%	–
COC(=O)c1ccc(COn2nnc3ccccc32)cc1	–	inconclusive: 12.6 µM [falling, partial curve, poor fit]
C/C(=N\NC(=O)c1cccc(C)c1O)c1ccc(NC(=O)Cc2ccccc2)cc1	inconclusive: -23.8%	–
Cc1noc(C)c1NC(=O)Nc1cccc2c1O[C@H](CN(C)C(=O)Nc1ccc(C(F)(F)F)cc1)[C@@H](C)CN([C@H](C)CO)C2=O	inconclusive: 3.01%	–
COc1nc(SCC(=O)Nc2ccccc2Cl)nc(N(C)C)n1	inconclusive: -11.7%	–
Cc1ccc(CNC(=O)C2CCN(S(=O)(=O)c3c(C)noc3/C=C/N(C)C)CC2)cc1	inactive	–
CC(C)Oc1ccc(CNC(=S)N/N=C/c2ccc([N+](=O)[O-])cc2)cc1	–	inconclusive: 1.16 µM [falling, full curve, poor fit]
